Assay results from PMC11513070.
Results are given in words; binding and its absence hold for the method and conditions named. In cells and extracts the contact can be indirect. A result given as binding can be weak or reduced; the word gives no strength. Tags and fused reporters may be left off the sequences shown.

Biological target: T1, Frey1-3xFLAG (UniProt Q8CF31)
T1 sequence: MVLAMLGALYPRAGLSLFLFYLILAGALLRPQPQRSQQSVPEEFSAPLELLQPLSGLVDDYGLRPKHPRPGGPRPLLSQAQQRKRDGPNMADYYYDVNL
Experiment: co-IP; Frey1-3xFLAG co-expressed with SPPL2c-myc variants in HEK293T cells (wild type or calnexin-deficient clone #9) and precipitated from DDM lysates with anti-FLAG beads; western blot

## SPPL2c Nt-SPP-myc (SPPL2c with the N-terminus of SPP) (mouse) (enzyme)
  binding: binds
